Reference: the supplement of paper PMC10849652
This is one part of the list.

Amino acid sequences for entries named in this document (tags omitted). A change or cut given only in a name is not applied to a line headed by its entry.
UniProt Q96J02: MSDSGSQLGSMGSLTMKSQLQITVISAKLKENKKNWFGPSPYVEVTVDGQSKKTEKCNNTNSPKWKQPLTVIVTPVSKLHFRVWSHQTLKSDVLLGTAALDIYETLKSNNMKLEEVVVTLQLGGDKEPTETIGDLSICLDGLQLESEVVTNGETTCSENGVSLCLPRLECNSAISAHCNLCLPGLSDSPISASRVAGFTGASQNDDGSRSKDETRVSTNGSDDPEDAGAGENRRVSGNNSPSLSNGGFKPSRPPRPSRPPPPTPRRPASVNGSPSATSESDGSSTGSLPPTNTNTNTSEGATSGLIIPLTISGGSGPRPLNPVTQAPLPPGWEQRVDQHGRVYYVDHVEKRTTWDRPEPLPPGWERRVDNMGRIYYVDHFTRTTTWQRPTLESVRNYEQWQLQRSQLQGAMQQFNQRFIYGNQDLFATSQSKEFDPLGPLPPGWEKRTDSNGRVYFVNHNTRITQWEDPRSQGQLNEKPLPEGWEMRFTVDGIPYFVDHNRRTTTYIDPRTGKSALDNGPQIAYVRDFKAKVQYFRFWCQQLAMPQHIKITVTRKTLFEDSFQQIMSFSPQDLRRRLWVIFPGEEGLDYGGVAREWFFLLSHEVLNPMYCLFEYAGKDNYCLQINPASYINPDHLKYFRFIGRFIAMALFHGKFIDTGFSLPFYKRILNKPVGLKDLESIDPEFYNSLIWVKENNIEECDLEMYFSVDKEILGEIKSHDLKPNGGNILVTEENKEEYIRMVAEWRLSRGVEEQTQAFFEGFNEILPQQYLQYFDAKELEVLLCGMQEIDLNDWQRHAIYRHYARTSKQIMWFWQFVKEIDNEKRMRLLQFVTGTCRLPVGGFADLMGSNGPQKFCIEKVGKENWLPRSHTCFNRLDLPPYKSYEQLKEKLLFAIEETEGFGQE
UniProt Q7L273: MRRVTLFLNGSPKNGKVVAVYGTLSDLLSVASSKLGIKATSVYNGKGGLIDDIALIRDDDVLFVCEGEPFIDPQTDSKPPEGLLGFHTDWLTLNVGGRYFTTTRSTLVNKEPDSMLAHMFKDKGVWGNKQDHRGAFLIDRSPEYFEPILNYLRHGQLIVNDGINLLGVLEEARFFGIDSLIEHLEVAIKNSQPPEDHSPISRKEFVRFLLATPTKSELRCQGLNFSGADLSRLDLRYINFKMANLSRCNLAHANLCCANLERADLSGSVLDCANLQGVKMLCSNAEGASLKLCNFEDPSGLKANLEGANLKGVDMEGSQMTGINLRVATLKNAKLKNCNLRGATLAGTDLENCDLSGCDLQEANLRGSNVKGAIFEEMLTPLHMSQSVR
UniProt Q9NXV2: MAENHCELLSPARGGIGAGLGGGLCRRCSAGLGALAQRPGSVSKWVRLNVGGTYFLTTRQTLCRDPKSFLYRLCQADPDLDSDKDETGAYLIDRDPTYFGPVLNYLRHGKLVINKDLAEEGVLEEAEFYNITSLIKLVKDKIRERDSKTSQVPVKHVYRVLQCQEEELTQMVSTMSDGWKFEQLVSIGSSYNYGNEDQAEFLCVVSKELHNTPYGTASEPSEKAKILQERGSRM
UniProt P14316: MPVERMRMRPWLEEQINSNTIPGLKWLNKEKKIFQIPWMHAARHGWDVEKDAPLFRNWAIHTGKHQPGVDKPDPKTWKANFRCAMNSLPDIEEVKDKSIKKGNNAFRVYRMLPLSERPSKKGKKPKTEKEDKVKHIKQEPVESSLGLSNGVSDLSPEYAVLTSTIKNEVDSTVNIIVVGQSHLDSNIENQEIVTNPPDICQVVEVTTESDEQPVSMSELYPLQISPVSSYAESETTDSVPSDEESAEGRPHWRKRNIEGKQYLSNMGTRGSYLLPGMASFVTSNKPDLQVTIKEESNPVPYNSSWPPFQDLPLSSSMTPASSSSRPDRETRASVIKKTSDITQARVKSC
UniProt Q8IY47: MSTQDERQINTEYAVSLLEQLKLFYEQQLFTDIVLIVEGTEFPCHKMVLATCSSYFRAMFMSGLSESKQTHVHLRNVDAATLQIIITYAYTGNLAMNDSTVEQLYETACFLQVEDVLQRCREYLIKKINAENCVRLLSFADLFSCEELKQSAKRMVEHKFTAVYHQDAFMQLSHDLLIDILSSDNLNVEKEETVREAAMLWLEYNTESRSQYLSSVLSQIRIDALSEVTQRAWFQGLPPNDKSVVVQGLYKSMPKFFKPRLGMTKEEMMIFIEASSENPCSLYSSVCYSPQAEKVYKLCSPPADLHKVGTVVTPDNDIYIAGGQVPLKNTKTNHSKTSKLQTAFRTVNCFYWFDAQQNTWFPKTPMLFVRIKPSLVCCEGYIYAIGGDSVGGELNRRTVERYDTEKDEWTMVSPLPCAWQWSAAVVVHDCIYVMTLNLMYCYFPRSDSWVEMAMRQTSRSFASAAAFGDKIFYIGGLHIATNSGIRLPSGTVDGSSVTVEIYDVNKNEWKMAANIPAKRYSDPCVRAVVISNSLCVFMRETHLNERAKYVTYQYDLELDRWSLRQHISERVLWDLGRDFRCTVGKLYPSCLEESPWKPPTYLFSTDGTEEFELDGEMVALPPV
UniProt Q9P2N6: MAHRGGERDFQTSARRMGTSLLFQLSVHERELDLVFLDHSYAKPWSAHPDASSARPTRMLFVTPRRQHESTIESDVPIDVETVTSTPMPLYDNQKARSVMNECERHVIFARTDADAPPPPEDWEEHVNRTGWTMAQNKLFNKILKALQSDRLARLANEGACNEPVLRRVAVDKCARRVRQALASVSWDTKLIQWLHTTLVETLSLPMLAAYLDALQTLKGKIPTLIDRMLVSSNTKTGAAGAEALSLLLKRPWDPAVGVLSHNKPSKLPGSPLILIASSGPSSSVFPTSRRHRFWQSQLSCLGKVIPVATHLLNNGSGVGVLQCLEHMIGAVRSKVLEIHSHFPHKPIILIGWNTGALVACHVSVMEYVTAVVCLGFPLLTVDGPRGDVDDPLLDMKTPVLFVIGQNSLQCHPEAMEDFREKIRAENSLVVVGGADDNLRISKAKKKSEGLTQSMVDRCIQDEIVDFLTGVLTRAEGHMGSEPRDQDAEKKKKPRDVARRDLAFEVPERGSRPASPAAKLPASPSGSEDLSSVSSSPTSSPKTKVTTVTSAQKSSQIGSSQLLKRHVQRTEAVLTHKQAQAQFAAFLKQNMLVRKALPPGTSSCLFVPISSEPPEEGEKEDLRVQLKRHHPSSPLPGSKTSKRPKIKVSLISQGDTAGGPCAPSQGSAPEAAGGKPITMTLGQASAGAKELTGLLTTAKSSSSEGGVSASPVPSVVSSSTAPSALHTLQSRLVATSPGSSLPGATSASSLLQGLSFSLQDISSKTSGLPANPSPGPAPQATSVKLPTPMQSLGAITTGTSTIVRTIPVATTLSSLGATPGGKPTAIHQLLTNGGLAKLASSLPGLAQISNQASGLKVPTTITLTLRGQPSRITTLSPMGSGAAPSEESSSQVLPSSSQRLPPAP
UniProt P33947: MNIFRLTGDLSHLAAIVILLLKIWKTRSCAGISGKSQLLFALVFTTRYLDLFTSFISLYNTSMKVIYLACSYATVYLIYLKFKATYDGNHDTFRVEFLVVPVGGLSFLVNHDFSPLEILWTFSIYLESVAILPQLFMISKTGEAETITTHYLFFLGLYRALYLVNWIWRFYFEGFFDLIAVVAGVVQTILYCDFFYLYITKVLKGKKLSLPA
UniProt Q9UK76: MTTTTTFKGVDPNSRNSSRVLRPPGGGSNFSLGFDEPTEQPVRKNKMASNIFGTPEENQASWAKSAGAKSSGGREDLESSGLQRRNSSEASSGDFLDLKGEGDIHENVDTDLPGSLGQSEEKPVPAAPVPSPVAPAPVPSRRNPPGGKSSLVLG
UniProt P53990, whole entry, looked up: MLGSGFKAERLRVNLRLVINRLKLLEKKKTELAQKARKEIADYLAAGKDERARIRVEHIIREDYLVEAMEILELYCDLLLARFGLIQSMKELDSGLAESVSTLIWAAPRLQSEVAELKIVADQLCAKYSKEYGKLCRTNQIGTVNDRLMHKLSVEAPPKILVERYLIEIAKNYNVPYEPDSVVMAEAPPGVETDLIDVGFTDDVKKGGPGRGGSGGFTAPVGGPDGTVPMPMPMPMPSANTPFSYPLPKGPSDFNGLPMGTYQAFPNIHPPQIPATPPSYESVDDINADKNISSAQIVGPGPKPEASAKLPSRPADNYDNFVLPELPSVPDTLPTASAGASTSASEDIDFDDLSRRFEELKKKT
UniProt P18084: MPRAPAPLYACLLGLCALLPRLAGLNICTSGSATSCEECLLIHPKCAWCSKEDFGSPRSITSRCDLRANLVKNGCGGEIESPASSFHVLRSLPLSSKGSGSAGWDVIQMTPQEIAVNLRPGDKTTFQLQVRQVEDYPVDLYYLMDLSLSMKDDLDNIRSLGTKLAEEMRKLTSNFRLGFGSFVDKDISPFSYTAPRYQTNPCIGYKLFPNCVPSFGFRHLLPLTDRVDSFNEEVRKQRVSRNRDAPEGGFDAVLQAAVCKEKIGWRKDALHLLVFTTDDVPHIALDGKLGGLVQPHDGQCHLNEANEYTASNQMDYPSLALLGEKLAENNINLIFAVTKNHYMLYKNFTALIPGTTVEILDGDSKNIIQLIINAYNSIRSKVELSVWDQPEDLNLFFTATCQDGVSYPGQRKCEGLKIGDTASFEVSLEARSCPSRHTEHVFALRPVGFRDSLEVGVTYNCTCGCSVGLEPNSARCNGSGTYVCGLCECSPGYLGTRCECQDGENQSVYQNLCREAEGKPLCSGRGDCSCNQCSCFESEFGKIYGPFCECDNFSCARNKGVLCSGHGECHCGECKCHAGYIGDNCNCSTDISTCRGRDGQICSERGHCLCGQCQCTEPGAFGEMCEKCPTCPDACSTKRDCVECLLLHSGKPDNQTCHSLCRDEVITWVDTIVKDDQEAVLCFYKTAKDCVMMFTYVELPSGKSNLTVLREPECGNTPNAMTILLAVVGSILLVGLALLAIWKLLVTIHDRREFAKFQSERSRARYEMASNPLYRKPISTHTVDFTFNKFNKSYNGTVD
UniProt O76095: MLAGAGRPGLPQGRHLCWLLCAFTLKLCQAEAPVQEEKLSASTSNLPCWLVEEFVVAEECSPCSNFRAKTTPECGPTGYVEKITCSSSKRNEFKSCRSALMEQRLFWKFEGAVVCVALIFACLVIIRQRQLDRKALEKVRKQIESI
UniProt Q9P0J7: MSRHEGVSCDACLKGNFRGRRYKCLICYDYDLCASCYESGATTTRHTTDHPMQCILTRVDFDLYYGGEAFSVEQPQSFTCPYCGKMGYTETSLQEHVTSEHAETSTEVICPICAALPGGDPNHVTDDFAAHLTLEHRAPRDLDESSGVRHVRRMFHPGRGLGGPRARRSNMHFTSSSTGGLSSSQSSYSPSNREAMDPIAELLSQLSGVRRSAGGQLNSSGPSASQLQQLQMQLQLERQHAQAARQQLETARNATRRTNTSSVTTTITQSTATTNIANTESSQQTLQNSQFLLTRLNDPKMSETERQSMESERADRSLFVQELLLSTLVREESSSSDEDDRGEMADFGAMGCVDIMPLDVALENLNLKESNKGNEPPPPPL

Assays:
Assay in all cases: log2 fold change, soluble protein after heating vs DMSO (PISA); higher = thermal stabilisation; K562 lysate, 10 uM; active = over 0.2 and 3.5 SD of the protein, either way, in both replicates (recomputed)
[1] = compound: C=CC(=O)N1CCC[C@@H](n2nc(-c3ccc(Oc4ccccc4)cc3)c3c(N)ncnc32)C1 [ibrutinib]
Outline: (§1)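 Quantification was by TMTpro 16plex LC-MS/MS with equalised channel sums, applied to the supernatant after 21,000xg for 90 min. Samples were crude K562 extract at 1 mg/mL protein in PBS pH 7.4 with 1 mM MgCl2, treated with 10 μM compound for 30 min, heated for 3 min across 48°C-58°C, pooled and brought to 0.5% NP-40 at 4°C. Values are log-two fold changes in thermal stability relative to solvent controls, from duplicates.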

[2] = compound: CC(=O)c1cnc2ccc(-c3cc(Cl)c(O)c(Cl)c3)nc2c1N[C@H]1CC[C@H](CN(C)C)CC1
Outline: as §1

[3] = compound: CC(C)(C)Cn1c(N)nc2ccc(-c3[nH]c(C(C)(C)C)nc3-c3ccc(F)cc3)nc21 [ralimetinib]
Outline: as §1

[4] = compound: CC(C)(O)CC(=O)NCCn1ccc2ncnc(Nc3ccc(Oc4cccc(C(F)(F)F)c4)c(Cl)c3)c21
Outline: as §1

[5] = compound: CC(C)C1=C2N=C(C=C(N2N=C1)NCC3=CC=CC=C3)NCCCCCCN
Outline: as §1

[6] = compound: CC1=C(C(CC(=O)N1)C2=CC=C(C=C2)C(F)(F)F)C(=O)NC3=C(C=C4C(=C3)C=NN4)F
Outline: as §1

[7] = compound: CC1=C(C2=C(C=C1)C(=O)C3=CC=CC=C3N2CCCN)C
Outline: as §1

[8] = compound: CC1=C(C=C(C=C1)NC(=O)C2=CC(=CC=C2)C(C)(C)C#N)NC3=CC4=C(C=C3)N=CN(C4=O)C
Outline: as §1

[9] = compound: CC1=C(C=C(C=C1)NC(=O)C2=CC(=CC=C2)N(C)C)NC(=O)C3=CC=C(C=C3)O
Outline: as §1

[10] = compound: CC1=CC=C(C=C1)SC2=C3C=C(SC3=CN=C2)C(=O)N
Outline: as §1

Measured: log2 fold change

INTS14 (UniProt Q96SY0)
inactive: [1] -0.006 | [2] -0.008 | [3] 0.023 | [4] -0.012 | [5] -0.048 | [6] -0.003 | [7] -0.029 | [8] -0.004 | [9] 0.006 | [10] -0.01

ITCH (UniProt Q96J02)
inactive: [1] 0.018 | [2] -0.013 | [3] -0.011 | [4] -0.016 | [5] 0.011 | [6] 0.017 | [7] -0.013 | [8] -0.008 | [9] 0.023 | [10] -0.028

KCTD9 (UniProt Q7L273)
inactive: [1] 0.018 | [2] -0.023 | [3] -0.002 | [4] -0.066 | [5] -0.015 | [6] 0.003 | [7] 0.035 | [8] -0.075 | [9] 0.132 | [10] 0.004

KCTD5 (UniProt Q9NXV2)
inactive: [1] -0.015 | [2] 0.04 | [3] 0.006 | [4] -0.046 | [5] 0.11 | [6] 0.064 | [7] 0.04 | [8] 0.041 | [9] -0.029 | [10] -0.035

KBTBD8 (UniProt Q8NFY9)
inactive: [1] 0.006 | [2] -0.026 | [3] -0.06 | [4] -0.014 | [5] -0.025 | [6] 0.001 | [7] 0.014 | [8] 0.015 | [9] 0.007 | [10] 0.072

KAT8 (UniProt Q9H7Z6)
inactive: [1] -0.034 | [2] -0.009 | [3] 0.012 | [4] 0.005 | [5] 0.01 | [6] 0.044 | [7] 0.015 | [8] -0.004 | [9] 0.002 | [10] 0.015

KDM1B (UniProt Q8NB78)
inactive: [1] 0.03 | [2] 0.027 | [3] -0.07 | [4] 0.05 | [5] -0.017 | [6] -0.101 | [7] -0.059 | [8] -0.018 | [9] 0.058 | [10] 0.012

IPO9 (UniProt Q96P70)
inactive: [1] -0.009 | [2] -0.019 | [3] 0.017 | [4] -0.005 | [5] -0.007 | [6] -0.004 | [7] -0.009 | [8] 0.004 | [9] -0.001 | [10] -0.008

ITGA5 (UniProt P08648)
inactive: [1] 0.042 | [2] 0.007 | [3] 0.011 | [4] -0.018 | [5] -0.016 | [6] 0.014 | [7] 0.02 | [8] -0.013 | [9] -0.002 | [10] -0.02

IREB2 (UniProt P48200)
inactive: [1] -0.002 | [2] -0.015 | [3] 0.013 | [4] -0.038 | [5] -0.032 | [6] -0.008 | [7] -0.009 | [8] 0.025 | [9] -0.001 | [10] 0.016

IPO8 (UniProt O15397)
inactive: [1] -0.033 | [2] -0.029 | [3] 0.033 | [4] -0.019 | [5] -0.034 | [6] -0.024 | [7] -0.002 | [8] 0.009 | [9] 0.032 | [10] -0.031

KARS1 (UniProt Q15046)
inactive: [1] 0.009 | [2] 0.012 | [3] 0.016 | [4] 0.018 | [5] 0.001 | [6] -0.011 | [7] 0.024 | [8] -0.014 | [9] 0.015 | [10] 0.029

IPO4 isoform 2 (UniProt Q8TEX9)
inactive: [1] 0.016 | [2] 0.006 | [3] 0.012 | [4] -0.031 | [5] -0.031 | [6] -0.023 | [7] -0.007 | [8] -0.001 | [9] -0.001 | [10] -0.007

IRF2 (UniProt P14316)
inactive: [1] 0.01 | [2] 0.047 | [3] -0.037 | [4] -0.222 | [5] -0.011 | [6] 0.091 | [7] -0.042 | [8] 0.226 | [9] -0.047 | [10] -0.033

KBTBD2 (UniProt Q8IY47)
inactive: [1] -0.005 | [2] -0.039 | [3] -0.113 | [4] -0.227 | [5] 0 | [6] 0.001 | [7] -0.036 | [8] 0.116 | [9] 0 | [10] -0.041

KANSL3 (UniProt Q9P2N6)
inactive: [1] -0.164 | [2] 0.001 | [3] -0.041 | [4] 0.011 | [5] 0.016 | [6] -0.026 | [7] 0.01 | [8] -0.112 | [9] 0.064 | [10] -0.081

KDELR2 (UniProt P33947)
inactive: [1] 0.044 | [2] -0.047 | [3] 0.032 | [4] 0.035 | [5] 0.024 | [6] -0.006 | [7] -0.032 | [8] 0.041 | [9] -0.022 | [10] -0.027

KDM3B (UniProt Q7LBC6)
inactive: [1] 0.007 | [2] 0.01 | [3] 0.024 | [4] -0.033 | [5] 0.008 | [6] 0.022 | [7] 0.017 | [8] -0.009 | [9] 0.022 | [10] -0.03

JPT1 (UniProt Q9UK76)
inactive: [1] 0.191 | [2] -0.017 | [3] -0.005 | [4] -0.012 | [5] -0.002 | [6] -0.006 | [7] -0.006 | [8] 0.007 | [9] -0.038 | [10] -0.022

IQGAP1 (UniProt P46940)
inactive: [1] -0.04 | [2] -0.002 | [3] 0.012 | [4] 0 | [5] -0.029 | [6] -0.015 | [7] 0.027 | [8] 0.004 | [9] 0.022 | [10] 0.012

IPO5 isoform 3 (UniProt O00410)
inactive: [1] 0.023 | [2] 0.011 | [3] 0.013 | [4] -0.009 | [5] -0.032 | [6] -0.015 | [7] 0.008 | [8] 0 | [9] -0.001 | [10] 0.009

ITGAV (UniProt P06756)
inactive: [1] -0.002 | [2] -0.009 | [3] -0.011 | [4] -0.025 | [5] -0.037 | [6] -0.034 | [7] -0.018 | [8] 0.028 | [9] 0.014 | [10] -0.028

IST1 (UniProt P53990)
inactive: [1] -0.033 | [2] 0.034 | [3] -0.014 | [4] 0.001 | [5] -0.014 | [6] -0.044 | [7] 0.045 | [8] 0.003 | [9] -0.038 | [10] -0.014

IRF2BP2 (UniProt Q7Z5L9)
inactive: [1] 0.02 | [2] -0.019 | [3] -0.002 | [4] -0.028 | [5] -0.054 | [6] -0.014 | [7] 0.006 | [8] 0.037 | [9] -0.003 | [10] -0.062

ITGB5 (UniProt P18084)
inactive: [1] 0.014 | [2] -0.013 | [3] 0.048 | [4] 0.005 | [5] -0.033 | [6] -0.016 | [7] 0.045 | [8] -0.019 | [9] 0.016 | [10] -0.009

INTS3 (UniProt Q68E01)
inactive: [1] 0.044 | [2] 0.024 | [3] 0.019 | [4] -0.032 | [5] 0.032 | [6] -0.035 | [7] 0.004 | [8] 0.009 | [9] 0.025 | [10] -0.032

JTB (UniProt O76095)
inactive: [1] 0.156 | [2] 0.122 | [3] -0.019 | [4] -0.078 | [5] -0.097 | [6] 0.07 | [7] -0.052 | [8] -0.063 | [9] -0.011 | [10] -0.174

IWS1 (UniProt Q96ST2)
inactive: [1] 0.038 | [2] -0.026 | [3] 0.018 | [4] 0.004 | [5] -0.002 | [6] -0.014 | [7] -0.014 | [8] -0.015 | [9] 0.008 | [10] -0.013

KCMF1 (UniProt Q9P0J7)
inactive: [1] -0.047 | [2] 0.008 | [3] -0.005 | [4] -0.045 | [5] 0.057 | [6] -0.077 | [7] -0.007 | [8] 0.093 | [9] -0.077 | [10] -0.022

Random excerpt: 2 records from the list, in no set order.
KCMF1 (UniProt Q9P0J7)
inactive: [1] -0.047 | [2] 0.008 | [3] -0.005 | [4] -0.045 | [5] 0.057 | [6] -0.077 | [7] -0.007 | [8] 0.093 | [9] -0.077 | [10] -0.022

IWS1 (UniProt Q96ST2)
inactive: [1] 0.038 | [2] -0.026 | [3] 0.018 | [4] 0.004 | [5] -0.002 | [6] -0.014 | [7] -0.014 | [8] -0.015 | [9] 0.008 | [10] -0.013
